From PMC5220304
No constants are given. Whether binding was seen depends on the method and setting. Binding seen in cells or lysates may run through a third protein. Binding can be weak; no strength is given.

The chains behind the UniProt entries cited, without tags or fusion partners. Where a name states a change or a piece, a line headed by the entry shows the natural chain unless it says otherwise.
UniProt Q336P5: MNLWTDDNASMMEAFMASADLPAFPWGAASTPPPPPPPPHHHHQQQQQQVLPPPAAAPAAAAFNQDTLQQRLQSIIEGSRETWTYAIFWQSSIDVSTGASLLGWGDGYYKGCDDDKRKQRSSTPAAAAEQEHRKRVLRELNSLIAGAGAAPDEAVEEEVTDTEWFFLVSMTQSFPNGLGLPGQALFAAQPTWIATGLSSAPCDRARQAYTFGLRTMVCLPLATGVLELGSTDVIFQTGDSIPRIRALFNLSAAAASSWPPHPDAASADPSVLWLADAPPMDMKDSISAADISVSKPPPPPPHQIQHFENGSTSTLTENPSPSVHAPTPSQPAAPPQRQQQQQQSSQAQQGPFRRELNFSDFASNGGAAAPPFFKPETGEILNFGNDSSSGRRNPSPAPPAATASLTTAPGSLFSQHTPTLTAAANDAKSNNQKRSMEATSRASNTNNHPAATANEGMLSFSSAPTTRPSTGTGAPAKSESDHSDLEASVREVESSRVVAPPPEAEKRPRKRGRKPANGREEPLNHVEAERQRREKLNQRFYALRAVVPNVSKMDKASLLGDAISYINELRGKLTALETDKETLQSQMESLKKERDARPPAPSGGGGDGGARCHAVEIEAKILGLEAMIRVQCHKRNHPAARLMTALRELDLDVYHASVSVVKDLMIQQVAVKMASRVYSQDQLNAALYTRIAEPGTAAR
UniProt Q0JP90: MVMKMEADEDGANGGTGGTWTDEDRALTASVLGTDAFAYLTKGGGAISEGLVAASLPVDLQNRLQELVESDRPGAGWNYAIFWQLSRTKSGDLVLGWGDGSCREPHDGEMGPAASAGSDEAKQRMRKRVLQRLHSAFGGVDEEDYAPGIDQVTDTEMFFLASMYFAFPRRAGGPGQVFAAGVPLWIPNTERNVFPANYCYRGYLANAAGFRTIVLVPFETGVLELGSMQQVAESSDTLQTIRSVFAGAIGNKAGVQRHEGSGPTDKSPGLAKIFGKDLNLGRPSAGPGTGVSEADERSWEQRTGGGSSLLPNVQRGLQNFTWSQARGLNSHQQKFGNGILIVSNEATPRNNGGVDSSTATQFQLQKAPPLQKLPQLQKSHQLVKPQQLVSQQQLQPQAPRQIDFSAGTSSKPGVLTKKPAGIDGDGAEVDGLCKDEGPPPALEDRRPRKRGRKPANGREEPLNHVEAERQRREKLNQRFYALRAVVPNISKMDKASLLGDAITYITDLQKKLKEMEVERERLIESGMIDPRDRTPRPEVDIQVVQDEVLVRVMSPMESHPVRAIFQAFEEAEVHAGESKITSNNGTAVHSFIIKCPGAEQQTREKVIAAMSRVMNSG

Molecular target: OsMYC2 fused to a half of EYFP (nYFP-OsMYC2 and cYFP-OsMYC2) (rice (Oryza sativa)) (UniProt Q336P5)
Experiment: split reporter; BiFC: nEYFP-fused protein, cEYFP-fused protein and DsRed1 under the CaMV 35S promoter, bombarded into onion epidermal cells; 25 °C in darkness for 24 h; YFP fluorescence by microscopy

binding: binds
Substance: cYFP-OsMYL2 (OsMYC2-like protein 2 fused to cEYFP) (from UniProt Q0JP90)
